PubChem BioAssay AID1259271 | Sanger Institute, 2017

- Test: 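Kinase siRNAs that make BYL719, cetuximab or trametinib kill more cells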 (follow-up of hits)
- Cell system: RKO colorectal cancer cells
- Knock-down reagent: single siRNA against human genes
- Conditions: anchor drug added to each siRNA well, cetuximab 5 µg/ml, trametinib 10 nM or BYL719 1 µM, compared with DMSO vehicle; exposure length not given
- Measured: 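Survival of cells relative to control pool 2 (non-targeting), replicate average, plus a synergy score for each anchor drug (trametinib 10 nM, cetuximab 5 µg/ml, BYL719 1 µM) compared with DMSO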
- Scale: synergy score with BYL719 and synergy score with cetuximab and synergy score with trametinib: higher = stronger synthetic lethality with the drug; viability, trametinib: higher = more cells surviving
- Rule for the call: 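Called active if the synergy score passes 0.10 for one or more anchor drugs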
- Calls: active = synergy with at least one drug; inactive = no synergy with any drug
Here is a random part of 160 reagents. Of all reagents, 124 (78%) got an active call. 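Each row is one of four siRNAs per gene; gene-level confirmation, requiring two siRNAs in several cell lines, is not included.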 Further read-outs or replicates are left out here. No sequences are given here. Not given: the amount of reagent, the time to read-out.

gene	PubChem SID	synergy score with BYL719	synergy score with cetuximab	synergy score with trametinib	viability, trametinib (fraction of control)	Outcome
AK2 (GeneID 204)	SID56477903	0.188	0.346	0.247	0.313	active
AK2 (GeneID 204)	SID56477904	0.0507	0.0303	0.267	0.293	active
AK2 (GeneID 204)	SID56477905	-0.182	-0.155	-0.0654	0.625	inactive
AK2 (GeneID 204)	SID56477906	0.0894	-0.104	0.308	0.251	active
SYNCRIP (GeneID 10492)	SID134270601	0.027	0.103	0.0885	0.384	active
SYNCRIP (GeneID 10492)	SID134270602	0.00631	0.0649	0.209	0.351	active
SYNCRIP (GeneID 10492)	SID134270603	0.303	0.202	0.389	0.162	active
SYNCRIP (GeneID 10492)	SID134270604	0.102	0.103	0.212	0.348	active
CSNK2A2 (GeneID 1459)	SID56476699	-0.178	0.0247	0.0857	0.371	inactive
CSNK2A2 (GeneID 1459)	SID56476700	-0.109	-0.0485	-0.00745	0.0547	inactive
CSNK2A2 (GeneID 1459)	SID56476701	-0.102	0.0139	0.109	0.327	active
CSNK2A2 (GeneID 1459)	SID56476702	-0.215	0.0205	0.0244	0.167	inactive
SYK (GeneID 6850)	SID56475471	0.272	0.277	0.317	0.243	active
SYK (GeneID 6850)	SID56475472	0.0573	0.112	0.126	0.433	active
SYK (GeneID 6850)	SID56475473	0.245	0.325	0.332	0.162	active
SYK (GeneID 6850)	SID56475474	-0.0805	-0.0966	0.199	0.361	active
CHD4 (GeneID 1108)	SID134247681	-0.0855	0.0338	0.0928	0.153	inactive
CHD4 (GeneID 1108)	SID134247682	-0.0731	0.0971	0.168	0.0809	active
CHD4 (GeneID 1108)	SID134247683	0.0952	0.187	0.169	0.251	active
CHD4 (GeneID 1108)	SID134247684	0.0281	0.243	0.226	0.32	active
STK36 (GeneID 27148)	SID56477127	-0.229	0.0542	0.118	0.315	active
STK36 (GeneID 27148)	SID56477128	-0.152	-0.0103	0.184	0.28	active
STK36 (GeneID 27148)	SID56477129	-0.218	0.0311	0.119	0.348	active
STK36 (GeneID 27148)	SID135611686	-0.143	-0.0454	-0.0379	0.548	inactive
ACVR1 (GeneID 90)	SID56476923	-0.139	-0.0144	0.0635	0.471	inactive
ACVR1 (GeneID 90)	SID56476924	-0.0812	-0.177	0.0751	0.334	inactive
ACVR1 (GeneID 90)	SID56476925	-0.234	-0.0449	-0.094	0.654	inactive
ACVR1 (GeneID 90)	SID152154144	-0.207	0.0324	0.0543	0.325	inactive
RPS6KA4 (GeneID 8986)	SID56476603	0.0552	0.178	0.233	0.229	active
RPS6KA4 (GeneID 8986)	SID56476604	0.303	0.341	0.276	0.241	active
RPS6KA4 (GeneID 8986)	SID56476605	0.0443	0.176	0.207	0.189	active
RPS6KA4 (GeneID 8986)	SID56476606	0.0682	0.0744	0.214	0.174	active
KCNH8 (GeneID 131096)	SID134236349	0.0546	0.0727	0.343	0.216	active
KCNH8 (GeneID 131096)	SID134236350	0.159	0.0724	0.301	0.152	active
KCNH8 (GeneID 131096)	SID134236351	-0.00924	-0.117	0.141	0.418	active
KCNH8 (GeneID 131096)	SID134236352	0.131	0.305	0.302	0.258	active

Part of the list above in another layout:
gene | PubChem SID | synergy score with BYL719 | synergy score with cetuximab | synergy score with trametinib | viability, trametinib (fraction of control) | Outcome
ACVR1 (GeneID 90) | SID56476923 | -0.139 | -0.0144 | 0.0635 | 0.471 | inactive
ACVR1 (GeneID 90) | SID56476924 | -0.0812 | -0.177 | 0.0751 | 0.334 | inactive
ACVR1 (GeneID 90) | SID56476925 | -0.234 | -0.0449 | -0.094 | 0.654 | inactive
ACVR1 (GeneID 90) | SID152154144 | -0.207 | 0.0324 | 0.0543 | 0.325 | inactive
RPS6KA4 (GeneID 8986) | SID56476603 | 0.0552 | 0.178 | 0.233 | 0.229 | active
